# Record: PubChem BioAssay AID1259254 (NCATS, 2017)
# Purpose: 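Gene knock-downs that lead to re-replication, shown by excess G2 DNA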 (primary screen)
# Cell system: human HCT116 colorectal cancer cells
# Knock-down reagent: single siRNA against human genes
# Duration: 3 days
# Measurement: 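Nuclei stained with Hoechst and imaged; cell-cycle phase assigned by DNA content; G2 share scaled per plate, non-targeting siRNA 0%, GMNN siRNA 100%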
# Reading the numbers: G2 robust z-score and G2 cells, % of GMNN control: higher = more G2 cells, more excess DNA replication
# Rule for the call: 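Active siRNAs have a G2 robust z of 5 or more median absolute deviations over the median, which in these data means about 38% or higher of GMNN control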
# The whole screen tested about 59,000 reagents; this is a part drawn at random. About 1,550 of all reagents (2.6%) count as active. 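G2 share is only a proxy for re-replication; each gene was hit by three separate siRNAs, and active genes were retested.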 Unmarked entries are inactive. Reagents against one gene are numbered here. Further read-outs or replicates are left out here. Not given: the amount of reagent.
target,reagent,G2 robust z-score,"G2 cells, % of GMNN control"
MGAT1,1,0.638,7.46
MGAT1,2,6.07 (active),45.7
MGAT1,3,0.834,8.83
SPDYA (speedy/RINGO cell cycle regulator family member A),1,-1.07,-4.58
SPDYA (speedy/RINGO cell cycle regulator family member A),2,3.62,28.4
SPDYA (speedy/RINGO cell cycle regulator family member A),3,-0.34,0.578
CRAMP1 (cramped chromatin regulator 1),1,-0.66,-1.68
CRAMP1 (cramped chromatin regulator 1),2,-0.522,-0.705
CRAMP1 (cramped chromatin regulator 1),3,-0.939,-3.64
LACRT (lacritin),1,0.354,5.46
LACRT (lacritin),2,0.757,8.29
LACRT (lacritin),3,2.41,19.9
RPL23AP43 (ribosomal protein L23a pseudogene 43),1,-0.667,-1.73
RPL23AP43 (ribosomal protein L23a pseudogene 43),2,-0.832,-2.89
RPL23AP43 (ribosomal protein L23a pseudogene 43),3,-0.476,-0.382
PSMB1 (proteasome 20S subunit beta 1),1,1.72,15.1
PSMB1 (proteasome 20S subunit beta 1),2,1.77,15.4
PSMB1 (proteasome 20S subunit beta 1),3,5.08 (active),38.7
MYF5 (myogenic factor 5),1,3.39,26.8
MYF5 (myogenic factor 5),2,-0.836,-2.91
MYF5 (myogenic factor 5),3,2.78,22.6
RPS10 (ribosomal protein S10),1,6.19 (active),46.5
RPS10 (ribosomal protein S10),2,3.63,28.5
RPS10 (ribosomal protein S10),3,7.62 (active),56.6
TRMT61B (tRNA methyltransferase 61B),1,-0.707,-2.01
TRMT61B (tRNA methyltransferase 61B),2,0.775,8.42
TRMT61B (tRNA methyltransferase 61B),3,-0.437,-0.108
PLEK2 (pleckstrin 2),1,0.628,7.39
PLEK2 (pleckstrin 2),2,2.24,18.7
PLEK2 (pleckstrin 2),3,1.25,11.7
MMP19 (matrix metallopeptidase 19),1,1.82,15.8
MMP19 (matrix metallopeptidase 19),2,-0.575,-1.08
MMP19 (matrix metallopeptidase 19),3,-0.738,-2.22
CNGA1 (cyclic nucleotide gated channel subunit alpha 1),1,-1.16,-5.21
CNGA1 (cyclic nucleotide gated channel subunit alpha 1),2,-0.413,0.0622
CNGA1 (cyclic nucleotide gated channel subunit alpha 1),3,0.775,8.42
CEP128 (centrosomal protein 128),1,-0.881,-3.23
CEP128 (centrosomal protein 128),2,1.74,15.2
CEP128 (centrosomal protein 128),3,-0.0982,2.28
IGIP (IgA inducing protein),1,-0.265,1.11
IGIP (IgA inducing protein),2,0.469,6.27
IGIP (IgA inducing protein),3,0.274,4.9

11 entries from above, ordered by “G2 cells, % of GMNN control”, ascending.
target,reagent,G2 robust z-score,"G2 cells, % of GMNN control"
CNGA1 (cyclic nucleotide gated channel subunit alpha 1),1,-1.16,-5.21
CEP128 (centrosomal protein 128),1,-0.881,-3.23
MMP19 (matrix metallopeptidase 19),3,-0.738,-2.22
MMP19 (matrix metallopeptidase 19),2,-0.575,-1.08
CNGA1 (cyclic nucleotide gated channel subunit alpha 1),2,-0.413,0.0622
IGIP (IgA inducing protein),1,-0.265,1.11
CEP128 (centrosomal protein 128),3,-0.0982,2.28
IGIP (IgA inducing protein),2,0.469,6.27
CNGA1 (cyclic nucleotide gated channel subunit alpha 1),3,0.775,8.42
CEP128 (centrosomal protein 128),2,1.74,15.2
MMP19 (matrix metallopeptidase 19),1,1.82,15.8

More results follow.
target,reagent,G2 robust z-score,"G2 cells, % of GMNN control"
GPR3 (G protein-coupled receptor 3),1,-0.567,-1.02
GPR3 (G protein-coupled receptor 3),2,0.899,9.3
GPR3 (G protein-coupled receptor 3),3,0.87,9.09
FILIP1L (filamin A interacting protein 1 like),1,-0.269,1.07
FILIP1L (filamin A interacting protein 1 like),2,-0.832,-2.89
FILIP1L (filamin A interacting protein 1 like),3,-0.204,1.53
PABPC1 (poly(A) binding protein cytoplasmic 1),1,1.22,11.5
PABPC1 (poly(A) binding protein cytoplasmic 1),2,0.881,9.17
PABPC1 (poly(A) binding protein cytoplasmic 1),3,0.453,6.15
SLC5A8,1,0.503,6.51
SLC5A8,2,0.612,7.28
SLC5A8,3,2.66,21.7
PDE1A (phosphodiesterase 1A),1,0.42,5.92
PDE1A (phosphodiesterase 1A),2,-1.12,-4.89
PDE1A (phosphodiesterase 1A),3,-0.433,-0.081
MND1 (meiotic nuclear divisions 1),1,-0.33,0.645
MND1 (meiotic nuclear divisions 1),2,0.691,7.83
MND1 (meiotic nuclear divisions 1),3,-0.308,0.798
TDG (thymine DNA glycosylase),1,-0.0757,2.43
TDG (thymine DNA glycosylase),2,-0.904,-3.39
TDG (thymine DNA glycosylase),3,8.19 (active),60.6
PTPRZ1 (protein tyrosine phosphatase receptor type Z1),1,-0.819,-2.8
PTPRZ1 (protein tyrosine phosphatase receptor type Z1),2,-0.254,1.18
PTPRZ1 (protein tyrosine phosphatase receptor type Z1),3,-0.726,-2.14
H3-3B (H3.3 histone B),1,0.275,4.9
H3-3B (H3.3 histone B),2,4.44,34.2
H3-3B (H3.3 histone B),3,0.947,9.63
